This is an account of results in PubChem BioAssay AID493014 (National Center for Advancing Translational Sciences (NCATS), 2011).

The nature of the experiment: qHTS Assay to Find Inhibitors of Chronic Active B-Cell Receptor Signaling. Particulars: ABC-DLBCL IkBa-CBG/CBR reporter, luminescence ratio (green luciferase fused to IkBa over red control in TMD8 lymphoma cells), 4 h. A digest of the protocol:
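Doxycycline induced both beetle luciferases in TMD8 lymphoma cells; IKK-driven degradation limits the IkappaBalpha-fused green signal, while red luminescence normalises for cell number and nonspecific effects. Compounds tested up to 46 uM, 4 hrs.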

[1] abbreviates: measured here: CBR red luminescence, cell number.
The mark [2] stands for this setting: measured here: IkBa-CBG green luminescence.

Structures are written as SMILES. The list shows a part of the results. These are further read-outs of the screen, such as a control signal, another cell line or another target. No call is given for them. Compounds called inactive in the main read-out are mostly missing here. The note in brackets gives the kind of curve behind each potency; many fits are weak.

Turning to `Cc1ccc(NC(=O)CN2C(=O)C3CC=CCC3C2=O)cc1S(=O)(=O)N1CCOCC1` (stereo not drawn), the AC50 under setting [1] is 4.47 µM [rising, full curve, poor fit].
On the same count and under the same terms, for `FC(F)(F)c1ccc(NC(=S)NC2CCCCC2)cc1` the value was 6.31 µM [rising, partial curve, poor fit]; for `COc1ccc2ncn(-c3ccccc3)c2c1`, 0.562 µM [rising, full curve, poor fit].
For the compound `Cc1ccc(-c2cnc(C3CC3)o2)cc1S(=O)(=O)Nc1ccccc1`, the AC50 under setting [1] was 35.5 µM [falling, single point].
Still for that read-out and setting: for `Cc1ccc(-c2ccc(S(=O)(=O)NCC3CCCO3)cc2)cc1` (stereo not drawn) the value was 0.1 µM [rising, full curve, poor fit].
Consider `CC(C)NC(=O)c1ccc(NC(=O)CC2SC(N3CCCCC3)=NC2=O)cc1` (stereo not drawn), for which the AC50 under setting [1] is 9.2 µM [rising, partial curve, poor fit].
On to `C=CCn1c(SCC(=O)NC(=O)NCc2ccco2)nc2sc(C)c(C)c2c1=O`, for which the AC50 was 25.1 µM [rising, single point] under setting [1] and 12.6 µM [falling, partial curve, poor fit] under setting [2].
On to `Cc1ccc(-c2c(C#N)c(N)n3c(nc4ccccc43)c2C#N)cc1`, for which, under setting [1], the AC50 is 0.731 µM [rising, full curve].
On the same count and under the same terms, for `Clc1ccc(-c2nc3cnccn3c2Nc2ccc3c(c2)OCO3)cc1` the value was 29.1 µM [falling, single point].
For `CC(C)C[C@H](NC(=O)c1nc[nH]c1C(=O)N(C)Cc1ccccc1)C(=O)OCc1ccccc1`, under setting [1], the AC50 was 15.8 µM [falling, single point].
For the compound `C#Cc1cccc(NC(=O)Cc2cccs2)c1`, the half-maximal activity concentration (AC50) under setting [1] was 1.78 µM [rising, full curve, poor fit].
The same measure, in the same setting: the result for `COc1ccc(/C=N/NC(=O)c2ccn[nH]2)cc1Cn1cc([N+](=O)[O-])cn1` reads 15.8 µM [falling, partial curve].
On the same count and under the same terms, the result for `Nc1ccc(C(=O)N/N=C/c2cn(Cc3ccccc3)c3ccccc23)cc1` reads 35.5 µM [falling, single point]; that for `CC(C)c1ccc(OCC(=O)Nc2cccc(C(=O)Nc3ccccc3C(=O)O)c2)cc1`, 10 µM [falling, partial curve].
The same measure, in the same setting: for `CCOC(=O)c1ccccc1N1C(=O)C2Sc3[nH]c(=O)sc3C(/C=C/c3ccccc3)C2C1=O` (stereo not drawn) the value was 20.6 µM [falling, partial curve, poor fit].
As for `Cc1[nH]c2ccccc2c1C(=O)C(C)OC(=O)c1ccccc1NCCO` (stereo not drawn), the AC50 under setting [1] is 0.82 µM [falling, full curve].
With `COc1cccc(NC(=O)c2ccc3nc(C)sc3c2)c1`, the AC50 under setting [1] was 2.82 µM [falling, partial curve, poor fit].
For the compound `Cc1ccc(S(=O)(=O)/N=C(\CN2CCOCC2)N2CCOCC2)cc1`, the AC50 under setting [1] is 35.5 µM [falling, partial curve, poor fit].
Still for that read-out and setting: the result for `COc1cccc(/C=C/c2onc(C)c2S(=O)(=O)N2CCC(C(=O)N3CCC(C)CC3)CC2)c1` reads 0.708 µM [rising, full curve, poor fit]; that for `Cc1ccc(S(=O)(=O)/C(C#N)=C/c2c(N3CCN(C)CC3)nc3c(C)cccn3c2=O)cc1`, 7.08 µM [falling, partial curve, poor fit].
Take `Cn1c(Cn2nnc3ccccc32)nnc1SCC(=O)c1ccccc1F`: the AC50 was 23.1 µM [rising, partial curve] under setting [1] and 32.6 µM [falling, partial curve, poor fit] under setting [2].
On to `COc1ccc(/C=C(\C#N)C(=O)OCC(=O)NC2CC2)cc1`, for which the AC50 under setting [1] was 12.6 µM [rising, partial curve, poor fit].
For the compound `Nc1cc(=O)[nH]c(=O)n1CC1CC1`, the half-maximal activity concentration (AC50) under setting [2] is 18.4 µM [falling, partial curve, poor fit].
Turning to `CCCc1c(C)nn(-c2ncccc2[N+](=O)[O-])c1C`, the concentration at half-maximal activity (AC50) under setting [1] is 35.5 µM [rising, partial curve, poor fit].
Turning to `CCCCNC(=O)C(c1ccc(OCC(=O)OC)c(C(=O)OC)c1)N(CCOC)C(=O)CCCCCN1C(=O)NC(c2ccc(-c3ccccc3)cc2)C(C(=O)OCc2ccccc2)=C1C` (stereo not drawn), the AC50 is, setting by setting: under setting [1], 7.94 µM [falling, partial curve]; under setting [2], 7.94 µM [rising, partial curve, poor fit].
As for `Cc1nc(NC(=O)c2ccc(F)cc2)nc2cc3c(cc12)OCO3`, under setting [1], the AC50 was 20 µM [falling, single point].
Take `CCc1ccc2nc3nc(C)cc(C)c3c(N)c2c1`: under setting [1], the AC50 was 10 µM [falling, partial curve, poor fit].
The same measure, in the same setting: the result for `CCOC(=O)C(=NC(C)(C)C)NNc1cc(Cl)ccc1Cl` reads 5.8 µM [rising, partial curve].
Still for that read-out and setting: for `CCN(CC)C(=O)c1n[nH]c(=O)c2ccccc12` the value was 10.3 µM [rising, partial curve]; for `Cc1nc2ccccc2c2c1C(=O)N(c1ccc(C(=O)O)cc1)C2=O`, 10 µM [falling, partial curve]; for `CCCc1nc(N)c(C#N)c(-c2ccco2)c1CC`, 0.366 µM [falling, full curve].
Same read-out and setting: the result for `Cc1ccc(C(=O)Nc2nc(=O)n(C)s2)cc1` reads 7.94 µM [falling, partial curve].
`COc1ccc2oc(=O)c(-c3csc(Nc4ccc(O)cc4)n3)cc2c1`: the half-maximal activity concentration (AC50) by setting is: under setting [1], 13 µM [falling, partial curve]; under setting [2], 29.1 µM [rising, single point].
For `CC[n+]1c(/C=C/c2ccc(OC)c(OC)c2)ccc2ccccc21`, under setting [1], the AC50 is 10 µM [rising, partial curve].
On the same count and under the same terms, the result for `CN1CC(=O)N(CC(=O)Nc2ccc(SC(F)F)cc2)C1=O` reads 11.2 µM [rising, single point]; that for `O=C(CO/N=C/c1ccc(Cl)cc1Cl)NNC(=O)c1ccc(Cl)cc1Cl`, 35.5 µM [rising, single point].
Regarding `COC(=O)C1CCCN1C(=O)COc1ccc(Br)cc1Cl` (stereo not drawn), under setting [1], the AC50 is 29.1 µM [rising, single point].
Still for that read-out and setting: the result for `Brc1ccc(CNCc2cccs2)cc1` reads 18.4 µM [rising, single point].
Regarding `CCC(C)C(NC(=O)CCC(=O)OCC(=O)[C@@]1(O)CCC2[C@@H]3CCC4=CC(=O)C=C[C@]4(C)C3[C@@H](O)C[C@@]21C)C(=O)O` (stereo partly drawn), the AC50 under setting [2] was 1.41 µM [falling, partial curve, poor fit].
